In PubChem BioAssay AID1559 (National Center for Advancing Translational Sciences (NCATS), 2009):
Inconclusive means that the source gave no clear call. A potency beside an inconclusive call is a rough fit, not a confirmed value.

By UniProt entry, the sequences of proteins in these tests, tags left out.
UniProt P10636, whole entry, looked up: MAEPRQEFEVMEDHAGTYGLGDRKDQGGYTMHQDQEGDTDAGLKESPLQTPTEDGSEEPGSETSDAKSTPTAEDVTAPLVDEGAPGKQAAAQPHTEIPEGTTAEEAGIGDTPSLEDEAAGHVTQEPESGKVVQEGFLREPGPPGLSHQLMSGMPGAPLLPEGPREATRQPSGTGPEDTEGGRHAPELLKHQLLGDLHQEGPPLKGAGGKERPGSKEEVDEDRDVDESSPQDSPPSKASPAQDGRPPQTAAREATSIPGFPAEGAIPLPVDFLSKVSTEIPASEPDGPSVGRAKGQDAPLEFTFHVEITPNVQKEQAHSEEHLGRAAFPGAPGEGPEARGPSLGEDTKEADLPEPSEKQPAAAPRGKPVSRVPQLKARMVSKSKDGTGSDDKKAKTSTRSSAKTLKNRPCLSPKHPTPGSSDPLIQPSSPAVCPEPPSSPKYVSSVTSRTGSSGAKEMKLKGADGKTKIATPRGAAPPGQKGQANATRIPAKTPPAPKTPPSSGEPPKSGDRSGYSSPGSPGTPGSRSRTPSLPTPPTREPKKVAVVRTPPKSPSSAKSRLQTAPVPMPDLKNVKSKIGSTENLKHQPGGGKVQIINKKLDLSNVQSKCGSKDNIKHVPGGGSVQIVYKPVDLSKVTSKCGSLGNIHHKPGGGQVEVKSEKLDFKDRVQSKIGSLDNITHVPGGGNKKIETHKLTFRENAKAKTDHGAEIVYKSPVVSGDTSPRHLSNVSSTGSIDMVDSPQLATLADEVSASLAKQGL

Target: Microtubule-associated protein tau (Homo sapiens) (UniProt P10636)
Experiment: Confirmation Concentration-Response Assay for Inhibitors of Tau Fibril Formation, Fluorescence Polarization
Details: recombinant tau K18 P301L (four-repeat tau fragment) heparin fibrillization, Alexa594 FP; active means well fitted curve in the direction sought with a large enough effect; inconclusive means small, poorly fitted or top-dose-only effect, or another doubt; inactive means no such curve, though single readings can be large or run the other way
Excerpt: NIH Molecular Libraries Probe Production Network [MLPCN] NIH Chemical Genomics Center [NCGC] MLPCN Grant: X01 MH083262-01 Assay Provider: Carlo Ballatore, University of Pennsylvania NCGC Assay Overview: The microtubule-associated protein tau is an abundant protein in the axons of neurons that stabilizes microtubules. With its ability to modulate microtubule dynamics, tau contributes directly or indirectly, to key structural and regulatory cellular functions. Particularly important is the influence tau exerts on axonal transport, which allows signaling molecules, trophic factors and other essential cellular constituents to travel along the axons. Under pathological conditions, tau becomes sequestered into insoluble aggregates called neurofibrillary tangles. This phenomenon is believed to have pathological consequences by promoting axonal transport deficits that ultimately lead to synaptic dysfunction and neuronal loss. […]
For screening, 2 uL/well human K18 P301L (15 uM unlabeled and 0.24 uM Alexa 594-labeled tau final concentrations) in reagent buffer (100 mM sodium acetate pH 7) was dispensed into black solid 1536-well plates (Grenier) using a solenoid-based dispenser. […] After a 1 hr ambient incubation, the plates were read by an Envision (Perkin Elmer) to monitor Alexa 594 FP (555 nm excitation and 632 nm emission). […]

SMILES: CC(N)[C@H](O)c1ccc(O)c(O)c1 (stereo partly specified)
- Potency: inconclusive: 8.91 µM [inhibitor, partial curve, poor fit]
